Results of single-concentration screens

Chains of the proteins cited; added tags and fusions are not shown. Residues count along the entry.
UniProt I6X8D2, whole entry: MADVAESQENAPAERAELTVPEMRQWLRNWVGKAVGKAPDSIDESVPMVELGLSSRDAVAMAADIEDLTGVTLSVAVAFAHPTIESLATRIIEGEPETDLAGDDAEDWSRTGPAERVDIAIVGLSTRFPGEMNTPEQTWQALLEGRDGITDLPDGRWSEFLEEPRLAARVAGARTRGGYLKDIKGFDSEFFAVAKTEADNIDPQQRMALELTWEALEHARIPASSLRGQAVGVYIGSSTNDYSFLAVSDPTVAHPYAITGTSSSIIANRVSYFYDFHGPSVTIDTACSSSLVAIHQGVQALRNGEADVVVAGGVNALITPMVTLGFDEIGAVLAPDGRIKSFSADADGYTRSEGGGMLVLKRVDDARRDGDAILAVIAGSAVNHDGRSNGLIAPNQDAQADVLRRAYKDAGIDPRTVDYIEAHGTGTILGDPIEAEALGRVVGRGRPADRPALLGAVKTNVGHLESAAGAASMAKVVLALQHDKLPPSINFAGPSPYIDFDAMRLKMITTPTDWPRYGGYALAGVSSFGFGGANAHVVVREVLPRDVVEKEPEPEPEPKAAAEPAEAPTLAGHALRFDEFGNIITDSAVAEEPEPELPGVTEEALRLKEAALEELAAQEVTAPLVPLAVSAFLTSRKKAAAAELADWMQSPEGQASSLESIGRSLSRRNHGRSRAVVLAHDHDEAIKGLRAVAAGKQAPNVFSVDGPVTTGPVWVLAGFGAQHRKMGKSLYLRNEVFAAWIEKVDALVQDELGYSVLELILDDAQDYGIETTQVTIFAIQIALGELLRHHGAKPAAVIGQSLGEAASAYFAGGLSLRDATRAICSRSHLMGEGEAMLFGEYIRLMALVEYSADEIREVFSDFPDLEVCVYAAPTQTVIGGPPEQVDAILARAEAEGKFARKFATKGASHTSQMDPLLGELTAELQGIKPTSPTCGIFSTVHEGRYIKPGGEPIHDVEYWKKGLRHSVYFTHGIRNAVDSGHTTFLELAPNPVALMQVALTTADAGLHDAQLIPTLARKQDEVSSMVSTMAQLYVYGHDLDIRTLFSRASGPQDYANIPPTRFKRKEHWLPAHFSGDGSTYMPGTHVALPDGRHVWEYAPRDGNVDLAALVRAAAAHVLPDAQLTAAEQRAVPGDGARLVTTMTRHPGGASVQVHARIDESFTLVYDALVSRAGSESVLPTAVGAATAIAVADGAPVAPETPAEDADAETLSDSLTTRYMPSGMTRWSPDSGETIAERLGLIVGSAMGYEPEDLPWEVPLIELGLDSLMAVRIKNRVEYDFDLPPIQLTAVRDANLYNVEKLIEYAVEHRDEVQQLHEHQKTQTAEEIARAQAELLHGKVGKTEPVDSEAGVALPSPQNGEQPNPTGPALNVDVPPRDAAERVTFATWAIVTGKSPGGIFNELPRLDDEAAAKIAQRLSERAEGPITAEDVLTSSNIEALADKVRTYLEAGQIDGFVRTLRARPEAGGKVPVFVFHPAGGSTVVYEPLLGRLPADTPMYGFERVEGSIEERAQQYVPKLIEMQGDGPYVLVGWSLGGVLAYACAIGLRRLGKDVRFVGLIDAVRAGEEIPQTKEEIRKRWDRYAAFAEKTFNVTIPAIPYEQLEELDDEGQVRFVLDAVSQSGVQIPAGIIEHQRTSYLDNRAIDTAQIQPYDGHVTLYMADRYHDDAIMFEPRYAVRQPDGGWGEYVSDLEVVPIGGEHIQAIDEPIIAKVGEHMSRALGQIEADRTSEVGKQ
UniProt A4I591, 1-473: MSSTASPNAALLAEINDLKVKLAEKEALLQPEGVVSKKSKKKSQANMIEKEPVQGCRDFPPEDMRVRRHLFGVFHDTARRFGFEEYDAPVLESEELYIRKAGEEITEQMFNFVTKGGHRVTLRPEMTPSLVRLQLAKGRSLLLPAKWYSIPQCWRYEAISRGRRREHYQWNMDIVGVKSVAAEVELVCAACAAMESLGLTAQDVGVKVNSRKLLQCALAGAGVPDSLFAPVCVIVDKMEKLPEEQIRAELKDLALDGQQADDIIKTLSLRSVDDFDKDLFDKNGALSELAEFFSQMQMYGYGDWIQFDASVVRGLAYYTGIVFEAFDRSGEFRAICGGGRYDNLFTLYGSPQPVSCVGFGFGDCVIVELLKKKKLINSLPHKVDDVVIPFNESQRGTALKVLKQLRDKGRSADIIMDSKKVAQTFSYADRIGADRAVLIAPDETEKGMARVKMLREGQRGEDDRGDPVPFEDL

The values are deposited in ChEMBL (CHEMBL3988442, “University of Dundee, Small-Polar-MMV Screening Library” (2021)).

Pks13 thioesterase: 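Polyketide synthase Pks13, Mycobacterium tuberculosis (UniProt I6X8D2). Enzyme assay of the thioesterase domain of polyketide synthase 13; the read-out is not stated. Concentration: 30 µM. Higher reads as stronger inhibition (inferred from which compounds were picked for retests). Of about 67,000 compounds tested this way, about 300 (0.46%) reached 50% or more in at least one test.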
LiHisRS: 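Histidine-tRNA ligase, Leishmania infantum (UniProt A4I591). Enzyme assay of histidyl-tRNA synthetase; the read-out is not stated. Compounds at 30 µM. Direction is inferred from retests: higher values go with stronger inhibition. The assay is labelled LdHisRS but filed under L. infantum. Size under these conditions: about 69,000 compounds, about 410 of them at 50% or above in at least one test.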

Each number is a percent effect as filed. How 0% and 100% were set is not recorded. Most values in the screen are low, and negative values occur. The compounds are a random part of those screened.

For COCCN(CC(N)=O)CC1CCCN(C2Cc3ccccc3C2)C1 (configuration not stated) the result was Pks13 thioesterase: 24.11%; LiHisRS: 0%. With CC(=O)c1cccc(OCCCC(=O)N(C)CC(N)=O)c1 the screen gave Pks13 thioesterase: -19.83%; LiHisRS: 23.29%. COc1ccc(S(=O)(=O)Cc2cc(C)on2)cc1 read Pks13 thioesterase: -28.64%; LiHisRS: 20%. With Cc1cc(CN2CCC(c3nccn3C(C)C)CC2)ccc1F the screen gave Pks13 thioesterase: 10.01%; LiHisRS: 20%. Result for CC(=O)N1CCC(c2nnc3ccc(C(=O)NCC(C)C)cn23)C1 (configuration not stated) was Pks13 thioesterase: -1.269%; LiHisRS: 6%. O=C(c1ccc(F)cc1)N1CCN2C[C@H](OCc3ccccn3)C[C@H]2C1 gave Pks13 thioesterase: -24.13%; LiHisRS: 12.03%. Result for Cc1cccc(O[C@H]2COCCN(Cc3sc(C)nc3C)C2)n1 was Pks13 thioesterase: 18.09%; LiHisRS: -8.333%. COCCCN1C(=O)CC[C@H]2CN(c3ccnc4ccccc34)CC[C@H]21 gave Pks13 thioesterase: 14.2%; LiHisRS: 9.167%.

COCC1N(C(=O)c2ccc3c(c2)OCCCO3)[C@H]2CC[C@]1(O)CC2 (some centres not stated) read Pks13 thioesterase: 2.895%; LiHisRS: 8.163%. CC(C(=O)N1CCCC1)N1CCC(c2nccn2CC2CCC2)CC1 (configuration not stated) gave LiHisRS: 17.14%. COc1cccc2sc(OC3CN(C(=O)C4=COCCO4)C3)nc12 read Pks13 thioesterase: 16.53%; LiHisRS: 10.75%. With O=C1CO[C@H]2CN(Cc3ccccc3Br)C[C@@H]2N1 the screen gave Pks13 thioesterase: 5.268%; LiHisRS: 18%. Result for O=C(c1cccc(NCCOc2ccc(F)cc2)c1)N1CCOCC1 was Pks13 thioesterase: 2.161%; LiHisRS: 12.94%. CN1CCC(N2CCCC(C(=O)N3Cc4ccccc4C3)C2)CC1 (configuration not stated) gave Pks13 thioesterase: -11.28%; LiHisRS: 12.24%. CCN(Cc1noc(CC(C)C)n1)Cc1cc2ccc(F)cc2[nH]c1=O gave Pks13 thioesterase: 2.986%; LiHisRS: 22.95%. c1csc(CN2CCC3(CCOCC3COCC3CC3)CC2)n1 (configuration not stated) gave Pks13 thioesterase: -5.82%; LiHisRS: 13.21%.

For Cc1ccccc1CCC(=O)N1CCc2ncnc(NCCO)c2CC1 the result was LiHisRS: 6.202%. For CCc1[nH]c2ccc(CNC(=O)Cc3c(C)nc(N)nc3C)cc2c1C the result was Pks13 thioesterase: -20.19%; LiHisRS: 32.86%. With O=C(c1ccsc1)N1CCc2c(CNc3ncccn3)n[nH]c2C1 the screen gave Pks13 thioesterase: -31.23%; LiHisRS: 13.21%. For Cc1ccc(C(=O)NS(=O)(=O)Cc2ccc(F)cc2)cc1S(C)(=O)=O the result was Pks13 thioesterase: -21.79%; LiHisRS: 12.05%. CCOC(C)c1noc(CN2CCN(c3ccncc3)CC2)n1 (configuration not stated) gave Pks13 thioesterase: -24.83%; LiHisRS: 11.11%. With Cc1ccsc1-c1nccn1CCN1CCCOC1=O the screen gave Pks13 thioesterase: -15.61%; LiHisRS: 11.9%. For CCN(c1ccsc1C(=O)N1CCSCC1)S(=O)(=O)c1ccc(Cl)cc1 the result was Pks13 thioesterase: 11.15%; LiHisRS: 21.95%. Result for Cc1nsc(NC(=O)NC2(CN3CCCCC3)CCCCC2)n1 was Pks13 thioesterase: -5.258%; LiHisRS: 8.511%.

With O=C(CNc1cccc2c1CCCC2)Nc1ccccc1Br the screen gave Pks13 thioesterase: -0.08915%; LiHisRS: 16.39%. CCCn1ncc(-c2ccnc(N[C@@H]3C[C@@H]4CC[C@H]3C4)n2)c1C gave Pks13 thioesterase: 14.96%; LiHisRS: -73.5%. Cn1ccnc(Sc2ccc(O)cc2)c1=O read LiHisRS: 18.92%. Cc1ccccc1CN(C)CC(O)COCc1ccccc1Cl (configuration not stated) gave Pks13 thioesterase: 13.67%; LiHisRS: -5.263%. O=C(Cc1cccc(Cl)c1)Nc1cnccc1SCCCO read Pks13 thioesterase: 16.12%; LiHisRS: 9.524%. CCC1c2ccsc2CCN1C(=O)NCCc1ccccn1 (configuration not stated) read Pks13 thioesterase: -14.95%; LiHisRS: 17.59%. Result for c1csc(N2CCN(Cc3nnnn3C3CC3)CC2)n1 was Pks13 thioesterase: 0.1316%; LiHisRS: 13.79%. For CSc1cc2c(cc1NC(=O)NCc1ccncc1)OCCO2 the result was Pks13 thioesterase: 27.27%; LiHisRS: 19.33%.

The first 2 entries again:

| SMILES | Pks13 thioesterase | LiHisRS |
|---|---|---|
| `COCCN(CC(N)=O)CC1CCCN(C2Cc3ccccc3C2)C1` (configuration not stated) | 24.11 | 0 |
| `CC(=O)c1cccc(OCCCC(=O)N(C)CC(N)=O)c1` | -19.83 | 23.29 |